PubChem BioAssay AID1159578 | Peter MacCallum Cancer Centre | 2015

Aim: 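Knock-downs that alter how fast lymphatic endothelial cells migrate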 (primary screen)
Cells: human lymphatic endothelial cells
Knock-down reagent: siRNA pool against human genes, 40 nM
Time to read-out: 48 h after transfection
Measurement: 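High-content imaging of dye-stained cells in a scratch assay measures filled wound area and nuclei per well; duplicate means given as ratio to mock and robust z-score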
Reading the numbers: migration robust z-score: higher = faster migration into the scratch; migration relative to mock: higher = more scratch area covered than mock; nuclei per well: higher = more cells in the well
Call rule: 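Migration changed when robust z exceeds 2 or falls below -2 and mean nuclei number is at least 3300; otherwise not called changed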
Meaning of the calls: active = migration changed; inactive = no migration change, or too few cells
This is a random part of about 18,000 reagents. About 1,030 of them (5.7%) were called active. 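Inactive calls also include pools with fewer than 3300 nuclei, whose migration was not assessed.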 Raw values vary from plate to plate and are shown uncorrected. No sequences are given here.

| gene symbol | migration robust z-score | migration class with cell-count check | migration relative to mock | nuclei per well, duplicate mean | activity call |
| --- | --- | --- | --- | --- | --- |
| S100B (GeneID 6285) | 0.3 | migration z between -2 and 2; enough cells | 0.97 | 5795 | inactive |
| SERGEF (GeneID 26297) | -1.05 | migration z between -2 and 2; enough cells | 0.61 | 5470 | inactive |
| TJP2 (GeneID 9414) | 0.65 | migration z between -2 and 2; enough cells | 0.93 | 5120 | inactive |
| SOHLH2 (GeneID 54937) | 0.12 | migration z between -2 and 2; enough cells | 0.92 | 6101 | inactive |
| PEDS1-UBE2V1 (GeneID 387522) | 1.4 | migration z between -2 and 2; enough cells | 1.07 | 5220 | inactive |
| CYB561D1 (GeneID 284613) | -1.23 | migration z between -2 and 2; enough cells | 0.57 | 4879 | inactive |
| PLA2G2E (GeneID 30814) | 0.68 | migration z between -2 and 2; enough cells | 0.94 | 4896 | inactive |
| DRG1 (GeneID 4733) | 1.25 | migration z between -2 and 2; enough cells | 1.04 | 6133 | inactive |
| UTY (GeneID 7404) | 1.57 | migration z between -2 and 2; enough cells | 1.29 | 6088 | inactive |
| PCCB (GeneID 5096) | 0.22 | migration z between -2 and 2; enough cells | 0.94 | 6892 | inactive |
| ITCH (GeneID 83737) | 1.3 | migration z between -2 and 2; enough cells | 1.05 | 5358 | inactive |
| THRSP (GeneID 7069) | 1.17 | migration z between -2 and 2; enough cells | 1.19 | 4102 | inactive |
| KCTD15 (GeneID 79047) | -1.86 | migration z between -2 and 2; enough cells | 0.44 | 4718 | inactive |
| CDC42EP2 (GeneID 10435) | 1.04 | migration z between -2 and 2; enough cells | 1.16 | 5828 | inactive |
| NUDT8 (GeneID 254552) | 0.68 | migration z between -2 and 2; enough cells | 1.06 | 6222 | inactive |
| GLMN (GeneID 11146) | -0.02 | migration z between -2 and 2; enough cells | 0.88 | 6340 | inactive |
| CSHL1 (GeneID 1444) | -0.04 | migration z between -2 and 2; enough cells | 0.88 | 5748 | inactive |
| KLF10 (GeneID 7071) | 0.05 | migration z between -2 and 2; enough cells | 0.82 | 6472 | inactive |
| BICRA (GeneID 29998) | 1.98 | migration z between -2 and 2; enough cells | 1.4 | 5461 | inactive |
| SOX11 (GeneID 6664) | 1.04 | migration z between -2 and 2; enough cells | 1.16 | 6038 | inactive |
| RBM3 (GeneID 5935) | 2.08 | migration z above 2; enough cells | 1.42 | 5884 | active |
| PI4KA (GeneID 5297) | -3.79 | migration z below -2; enough cells | 0.08 | 4779 | active |
| STPG1 (GeneID 90529) | -0.86 | migration z between -2 and 2; enough cells | 0.66 | 4212 | inactive |
| PEAK3 (GeneID 374872) | -0.7 | migration z between -2 and 2; enough cells | 0.7 | 6158 | inactive |
| AARSD1 (GeneID 80755) | -0.65 | migration z between -2 and 2; enough cells | 0.68 | 4856 | inactive |
| NAV3 (GeneID 89795) | 0.32 | migration z between -2 and 2; enough cells | 0.97 | 6566 | inactive |

A portion of the results above, as a working copy:
| gene symbol | migration robust z-score | migration class with cell-count check | migration relative to mock | nuclei per well, duplicate mean | activity call |
| --- | --- | --- | --- | --- | --- |
| CYB561D1 (GeneID 284613) | -1.23 | migration z between -2 and 2; enough cells | 0.57 | 4879 | inactive |
| PLA2G2E (GeneID 30814) | 0.68 | migration z between -2 and 2; enough cells | 0.94 | 4896 | inactive |
| DRG1 (GeneID 4733) | 1.25 | migration z between -2 and 2; enough cells | 1.04 | 6133 | inactive |
| UTY (GeneID 7404) | 1.57 | migration z between -2 and 2; enough cells | 1.29 | 6088 | inactive |
| PCCB (GeneID 5096) | 0.22 | migration z between -2 and 2; enough cells | 0.94 | 6892 | inactive |
| ITCH (GeneID 83737) | 1.3 | migration z between -2 and 2; enough cells | 1.05 | 5358 | inactive |
| THRSP (GeneID 7069) | 1.17 | migration z between -2 and 2; enough cells | 1.19 | 4102 | inactive |
| KCTD15 (GeneID 79047) | -1.86 | migration z between -2 and 2; enough cells | 0.44 | 4718 | inactive |
| CDC42EP2 (GeneID 10435) | 1.04 | migration z between -2 and 2; enough cells | 1.16 | 5828 | inactive |
| NUDT8 (GeneID 254552) | 0.68 | migration z between -2 and 2; enough cells | 1.06 | 6222 | inactive |
| GLMN (GeneID 11146) | -0.02 | migration z between -2 and 2; enough cells | 0.88 | 6340 | inactive |
| CSHL1 (GeneID 1444) | -0.04 | migration z between -2 and 2; enough cells | 0.88 | 5748 | inactive |

The listing continues:
| gene symbol | migration robust z-score | migration class with cell-count check | migration relative to mock | nuclei per well, duplicate mean | activity call |
| --- | --- | --- | --- | --- | --- |
| TOMM40 (GeneID 10452) | -1.04 | migration z between -2 and 2; enough cells | 0.6 | 6666 | inactive |
| HNRNPCL1 (GeneID 343069) | 0.48 | migration z between -2 and 2; enough cells | 1.01 | 6960 | inactive |
| EPHA7 (GeneID 2045) | -3.68 | migration z below -2; enough cells | 0.1 | 3375 | active |
| SEC22A (GeneID 26984) | 0.55 | migration z between -2 and 2; enough cells | 1.03 | 6912 | inactive |
| AJM1 (GeneID 389813) | -0.72 | migration z between -2 and 2; enough cells | 0.7 | 5842 | inactive |
| MYO1A (GeneID 4640) | 0.36 | migration z between -2 and 2; enough cells | 0.88 | 6995 | inactive |
| OR2M3 (GeneID 127062) | 0.12 | migration z between -2 and 2; enough cells | 0.92 | 5175 | inactive |
| ZNF699 (GeneID 374879) | -0.98 | migration z between -2 and 2; enough cells | 0.63 | 5895 | inactive |
| CYSTM1 (GeneID 84418) | -1.54 | migration z between -2 and 2; enough cells | 0.48 | 3650 | inactive |
| SOCS6 (GeneID 9306) | 1.01 | migration z between -2 and 2; enough cells | 1 | 5417 | inactive |
| PP2D1 (GeneID 151649) | 0.6 | migration z between -2 and 2; enough cells | 0.92 | 5956 | inactive |
| ELMOD3 (GeneID 84173) | -0.42 | migration z between -2 and 2; enough cells | 0.72 | 5192 | inactive |
| ACTRT2 (GeneID 140625) | 0.26 | migration z between -2 and 2; enough cells | 0.96 | 4986 | inactive |
| MEGF11 (GeneID 84465) | -2.47 | migration z below -2; enough cells | 0.24 | 4442 | active |
| TMPRSS11F (GeneID 389208) | 0.18 | migration z between -2 and 2; enough cells | 0.84 | 5382 | inactive |
| NLRP3 (GeneID 114548) | -0.24 | migration z between -2 and 2; enough cells | 0.76 | 6497 | inactive |
| LRRK2 (GeneID 120892) | -0.08 | migration z between -2 and 2; enough cells | 0.79 | 4909 | inactive |
| IGF2-AS (GeneID 51214) | -0.08 | migration z between -2 and 2; enough cells | 0.86 | 5572 | inactive |
| IRF7 (GeneID 3665) | -0.39 | migration z between -2 and 2; enough cells | 0.73 | 4346 | inactive |
| TMEM44 (GeneID 93109) | -1.1 | migration z between -2 and 2; enough cells | 0.6 | 6090 | inactive |
| CCDC158 (GeneID 339965) | -0.16 | migration z between -2 and 2; enough cells | 0.84 | 5382 | inactive |
| ANKS1B (GeneID 56899) | 0.48 | migration z between -2 and 2; enough cells | 1.01 | 5841 | inactive |
| CCDC141 (GeneID 285025) | -0.48 | migration z between -2 and 2; enough cells | 0.76 | 6833 | inactive |
| CYC1 (GeneID 1537) | -0.47 | migration z between -2 and 2; enough cells | 0.72 | 6960 | inactive |
| MPND (GeneID 84954) | 0.02 | migration z between -2 and 2; enough cells | 0.89 | 4566 | inactive |
| SGPL1 (GeneID 8879) | 0.18 | migration z between -2 and 2; enough cells | 0.84 | 6392 | inactive |
| AMBP (GeneID 259) | -0.31 | migration z between -2 and 2; enough cells | 0.75 | 6015 | inactive |
| SPECC1L (GeneID 23384) | 0.98 | migration z between -2 and 2; enough cells | 1.14 | 5620 | inactive |
| BRD4 (GeneID 23476) | -0.18 | migration z between -2 and 2; enough cells | 0.77 | 4698 | inactive |
| FAM163B (GeneID 642968) | -0.08 | migration z between -2 and 2; enough cells | 0.86 | 6684 | inactive |
| RTKN (GeneID 6242) | -2.34 | migration z below -2; enough cells | 0.28 | 4184 | active |
| TRAM1 (GeneID 23471) | 0.22 | migration z between -2 and 2; enough cells | 0.94 | 5842 | inactive |
| ARHGAP31 (GeneID 57514) | -1.03 | migration z between -2 and 2; enough cells | 0.62 | 6842 | inactive |
| ITFG2 (GeneID 55846) | -2.48 | migration z below -2; enough cells | 0.24 | 5194 | active |
| KMO (GeneID 8564) | 0 | migration z between -2 and 2; enough cells | 0.8 | 6266 | inactive |
| MRGBP (GeneID 55257) | 0.16 | migration z between -2 and 2; enough cells | 0.92 | 5321 | inactive |
| STAG1 (GeneID 10274) | -0.44 | migration z between -2 and 2; enough cells | 0.77 | 5188 | inactive |
| SPACA3 (GeneID 124912) | 0.8 | migration z between -2 and 2; enough cells | 0.96 | 4613 | inactive |
| OR4F17 (GeneID 81099) | -0.04 | migration z between -2 and 2; enough cells | 0.88 | 7012 | inactive |
| FASTKD3 (GeneID 79072) | -0.23 | migration z between -2 and 2; enough cells | 0.83 | 5475 | inactive |
| CDS2 (GeneID 8760) | -0.94 | migration z between -2 and 2; enough cells | 0.62 | 6341 | inactive |
| ZBTB7A (GeneID 51341) | 1.09 | migration z between -2 and 2; enough cells | 1.02 | 6562 | inactive |
| OR2J2 (GeneID 26707) | -0.34 | migration z between -2 and 2; enough cells | 0.8 | 5652 | inactive |
| RASSF6 (GeneID 166824) | 0.24 | migration z between -2 and 2; enough cells | 0.95 | 4917 | inactive |
| OR8U9 (GeneID 504190) | -1.88 | migration z between -2 and 2; enough cells | 0.4 | 4828 | inactive |
| PSD2 (GeneID 84249) | -0.1 | migration z between -2 and 2; enough cells | 0.86 | 7108 | inactive |
| ADCYAP1R1 (GeneID 117) | 1.46 | migration z between -2 and 2; enough cells | 1.08 | 7630 | inactive |
